Where a name gives a salt, the structure may show the parent alone.
What was measured:
[1] = Pharmacokinetics in mice, drug levels by mass spectrometry; type: in vivo; conditions: wild-type FVB mice, single intraperitoneal injection
[2] = mice; doses tested 0.1 to 10 mg/kg

Question: With `Cc1cc(/C=C/c2ccc3cc(N(C)C)ccc3[n+]2C)c(C)n1-c1ccccc1` [PP, 6-Dimethylamino-2-[2-(2,5-dimethyl-1-phenyl-1H-pyrrol-3-yl)-vinyl]-1-methyl-quinolinium, pamoate salt, reference compound] as the compound, how does the “Clearance / half-life (in words)” value [1] read?
Answer: Its value is “prolonged half-life”.

Question: And the Tolerated dose [2]?
Answer: Its Tolerated dose is 5 mg/kg.

Question: What about the Toxic dose [2] of the same compound?
Answer: Its Toxic dose is 10 mg/kg.

From patent US8580773B2, “Small-molecule inhibitors of the androgen receptor” (The Regents of the University of California, priority 2008, dated 2013)
